{"source": "PubChem BioAssay AID1347075", "about": "(National Center for Advancing Translational Sciences (NCATS), 2019)", "note": "The whole screen tested about 400,000 compounds, of which about 5,500 (1.4%) were called active. Inconclusive means that the source gave no clear call. Such entries were picked first, then a sample of the others. The call rests on the fitted dose curve; in most records, active means well fitted cell-killing curve with a large enough effect; inconclusive means small, poorly fitted or top-dose-only effect, or effect the other way; inactive means flat fitted curve, though single readings scatter. Where the call is inconclusive, the potency comes from a doubtful curve fit."}
{"experiment": "qHTS assay for MDR1-selective chemotherapeutics: Primary screen using the parental adenocarcinoma cell KB-3-1; further: nearly all actives have a fitted effect of over 60% in size; further: potency means the concentration at half of the fitted maximal effect; on activity change, negative = cytotoxic: on the % scale 0 is the no-effect control and ±100 the full control effect", "details": "KB-3-1 viability, CellTiter-Glo ATP luminescence, 72 h; activity change, negative = cytotoxic: at 46.1 µM (top of the series)", "method_in_brief": "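72 h, 37 °C compound treatment of KB-3-1 parental cells; CellTiter-Glo added, 10 min, luminescence read. Data corrected against DMSO-only plates and normalized before curve fitting.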"}
{"compound": "CC1CCN2c3nc4ccccn4c(=O)c3CC3(C(=O)N(C)C(=O)N(C)C3=O)C2C1", "note": "(configuration not stated)", "Potency": "inactive"}
{"compound": "Cc1ccc2cc(C=C(C#N)C#N)c(Cl)nc2c1", "Potency": "inconclusive: 29.1 µM [cytotoxic, single point]"}
{"compound": "CCCCCCCCCCCCCCCC[N+](C)(C)C", "Potency": "inconclusive: 29.1 µM [cytotoxic, single point]"}
{"compound": "CC(C)Oc1cccc(C(=O)C2CCCN(Cc3ccon3)C2)c1", "note": "(configuration not stated)", "Potency": "inconclusive: 29.1 µM [cytotoxic, single point]"}
{"compound": "Cc1ccc(Cn2cc(C=O)c3ccccc32)cc1", "Potency": "inconclusive: 23.1 µM [cytotoxic, partial curve, poor fit]"}
{"compound": "COc1ccccc1CCNC1CCC(C)CC1", "note": "(configuration not stated)", "Potency": "inactive"}
{"compound": "COc1ccc(C2CC(=O)Oc3c2c(=O)oc2ccccc32)c(OC)c1OC", "note": "(configuration not stated)", "Potency": "inconclusive: 23.1 µM [rising, single point]"}
{"compound": "COC(=O)C1=C(c2cccc(OCc3ccccc3)c2)C[C@@H]2CC[C@H]1N2C(=O)NCc1ccc(N(C)C)cc1", "Potency": "inconclusive: 23.1 µM [cytotoxic, single point]"}
{"compound": "CCOC(=O)[C@]12Cc3cc(OC)ccc3[C@H]1N(C(C)C)C(=O)c1cc(OC)ccc12", "Potency": "active: 10.3 µM"}
{"compound": "Cn1c(O)c(C(=Nc2ccccc2)SCc2ccc(Cl)cc2)c(=O)n(C)c1=O", "Potency": "inconclusive: 29.1 µM [cytotoxic, single point]"}
{"compound": "CCc1nc2ccccc2c(=O)n1-c1ccc2ccccc2c1", "Potency": "inconclusive: 16.4 µM [cytotoxic, partial curve, poor fit]"}
{"compound": "COC1CCC(OC2CC(C3(C)CCC4(CC(O)C(C)C(C(C)/C=C(\\C)C(=O)C(C)CC(C)C(=O)O)O4)O3)OC3(OC(C4OC(O)(CO)C(C)CC4C)CC3C)C2C)OC1C", "note": "(configuration not stated)", "Potency": "inconclusive: 0.58 µM [cytotoxic, partial curve, poor fit]"}
{"compound": "O=c1[nH]c2ccccc2n1C1CCN(C(c2cc3ccccc3o2)c2nnnn2Cc2ccccc2)CC1", "note": "(configuration not stated)", "Potency": "inconclusive: 29.1 µM [cytotoxic, single point]"}
{"compound": "Cc1ccc(Cn2cccc(C(=O)Nc3ccc(C)c(Cl)c3)c2=O)cc1", "Potency": "inconclusive: 3.66 µM [cytotoxic, full curve]"}
{"compound": "COc1ccc(NC(=O)N2C[C@@H]3C[C@@H](C2)c2cccc(=O)n2C3)c(OC)c1", "Potency": "inactive"}
{"compound": "CCCCCn1c(=O)c(C(=O)NCc2ccccc2)c(O)c2ccccc21", "Potency": "inconclusive: 29.1 µM [cytotoxic, single point]"}
{"compound": "O=P(Oc1ccccc1)(N1CCOCC1)N1CCOCC1", "Potency": "inactive"}
{"compound": "COc1ccccc1CCNCc1ccc(OC)c(OC)c1OC", "Potency": "inactive"}
{"compound": "CN(C)C(=O)Oc1ccc([N+](=O)[O-])cc1", "Potency": "inconclusive: 29.1 µM [rising, single point]"}
{"compound": "COc1ccc(-n2c(O)c(C(C)=NC3CC3)c(=O)[nH]c2=O)cc1", "Potency": "inactive"}
{"compound": "CCN(CC)C(=O)c1ccc(NC(=O)Nc2ccccc2F)cc1", "Potency": "inconclusive: 8.2 µM [cytotoxic, partial curve, poor fit]"}
{"compound": "COC(=O)c1ccc(NC(=O)CSc2nc3ccc(N4C(=O)C5C6C=CC(C6)C5C4=O)cc3s2)cc1", "note": "(configuration not stated)", "Potency": "active: 20.6 µM"}
{"compound": "Cc1cccc(CNCCc2ccccc2)n1", "activity change, negative = cytotoxic": "inconclusive: 0.951%"}
{"compound": "CCC(c1nnnn1-c1ccc2c(c1)OCCO2)N1CCC(n2c(=O)[nH]c3ccccc32)CC1", "note": "(configuration not stated)", "Potency": "inconclusive: 29.1 µM [cytotoxic, single point]"}
{"compound": "O=C(NCC1=C(c2cccc3ccccc23)C[C@@H]2CC[C@H]1N2Cc1ccco1)c1ccc([N+](=O)[O-])cc1", "Potency": "inactive"}
{"compound": "Clc1ccc(COC(Cn2ccnc2)c2ccc(Cl)cc2Cl)cc1", "note": "(configuration not stated)", "Potency": "inconclusive: 29.1 µM [cytotoxic, single point]"}
{"compound": "COc1ccc(C(=O)N/N=C/C23CC[C@@H](O)CC2(O)CC[C@@H]2[C@@H]3CCC3(C)C(C4=CC(=O)OC4)CCC23O)cc1", "note": "(some centres not stated)", "Potency": "inconclusive: 25.9 µM [cytotoxic, single point]"}
{"compound": "CN(C)C=C1C(=O)N(C2CCCCC2)C(=O)N(C2CCCCC2)C1=O", "Potency": "inactive"}
{"compound": "COc1cc([N+](=O)[O-])c2ncccc2c1[N+](=O)[O-]", "Potency": "inconclusive: 23.1 µM [cytotoxic, single point]"}
{"compound": "Cc1cc(C)cc(OCCOc2cccc(C=C3C(=O)NC(=O)NC3=O)c2)c1", "Potency": "inconclusive: 14.6 µM [rising, partial curve, poor fit]"}
{"compound": "COc1cccc(C(c2nnnn2Cc2ccccc2)N2CCC(n3c(=O)[nH]c4ccccc43)CC2)c1OC", "note": "(configuration not stated)", "Potency": "inconclusive: 29.1 µM [cytotoxic, single point]"}
{"compound": "c1ccc2c(CN3CCCCCCC3)c[nH]c2c1", "Potency": "active: 20.6 µM"}
{"compound": "Cc1ccc(C)c(NP(=O)(Oc2ccccc2)Oc2ccccc2)c1", "Potency": "inconclusive: 29.1 µM [cytotoxic, single point]"}
{"compound": "CCc1cc2c(s1)NC(=O)CN=C2c1cccs1", "Potency": "inconclusive: 23.1 µM [cytotoxic, single point]"}
{"compound": "O=C(c1cc(C(=O)NCc2ccc(Cl)cc2)c(=O)n(Cc2ccc(Cl)cc2)c1)c1cc(F)ccc1O", "Potency": "inconclusive: 16.4 µM [cytotoxic, single point]"}
{"compound": "COc1cc2c(cc1OC)C1C(=O)c3ccc4c(c3OC1CO2)CC(C(C)C)O4", "note": "(configuration not stated)", "Potency": "inconclusive: 0.58 µM [cytotoxic, full curve, poor fit]"}
{"compound": "O=C(CN1CCOCC1)NCC(=O)Nc1ccc(Br)cc1C(=O)c1ccccc1", "Potency": "inactive"}
{"compound": "Cn1c(O)c(/C=N/NC(=O)c2ccncc2)c(=O)n(C)c1=S", "Potency": "inactive"}
{"compound": "C[C@]12CC[C@H](O)C[C@H]1CC[C@@H]1[C@@H]2CC[C@]2(C)[C@@H](C3=CC(=O)OC3)CC[C@]12O", "Potency": "active: 1.64 µM"}
{"compound": "CC12C=CC(=O)CC1CCC1C2CCC2(C)C(O)C(O)CC12", "note": "(configuration not stated)", "Potency": "inconclusive: 18.4 µM [cytotoxic, single point]"}
{"compound": "Cc1[nH]c2ccc(OC(F)(F)F)cc2c1CCNCc1cccc([N+](=O)[O-])c1", "Potency": "inconclusive: 23.1 µM [cytotoxic, single point]"}
{"compound": "Nc1ccc(C2(c3ccc(N)cc3)CCCCC2)cc1", "Potency": "inactive"}
{"compound": "C[C@]12CCC3C(CCC4=CC(O)CC[C@@]43/C=N/O)C1(O)CCC2C1=CC(=O)OC1", "note": "(some centres not stated)", "Potency": "active: 0.291 µM"}
{"compound": "CC(=NCc1ccc(F)cc1)c1c(O)n(C)c(=O)n(C)c1=O", "Potency": "active: 5.8 µM"}
{"compound": "c1ccc2[nH]c(CCNC3CCCCC3)nc2c1", "Potency": "inactive"}
{"compound": "O=C(c1ccc(C(F)(F)F)cc1)C1CCCN(Cc2ccc(CO)o2)C1", "note": "(configuration not stated)", "Potency": "inactive"}
{"compound": "Cc1ccc(C)c(CN2CCC(n3nnc4cc(F)ccc43)CC2)c1", "Potency": "inactive"}
{"compound": "COc1ccc(N=Cc2c(O)n(Cc3ccccc3)c(=S)[nH]c2=O)c(OC)c1", "Potency": "inactive"}
{"compound": "Cc1[nH]c2ccccc2c1CN1CCCCC1", "Potency": "inconclusive: 29.1 µM [cytotoxic, single point]"}
{"compound": "CCN1C(=O)C(=C2C=C(C)OC(C)=C2)C(=O)N(CC)C1=S", "Potency": "inactive"}
{"compound": "CC(O)(CS(=O)(=O)c1cccc(C(F)(F)F)c1)C(=O)Nc1cccc(C(F)(F)F)c1", "note": "(configuration not stated)", "Potency": "inactive"}
{"compound": "C=CCCC[C@@H]1OC(=O)CNC(=O)C([C@@H](C)CC)NC(=O)[C@@H]2CCCN2C(=O)C([C@@H](C)CC)OC(=O)[C@H](Cc2ccccc2)N(C)C(=O)[C@H](C(C)C)NC(=O)C1(C)C", "note": "(some centres not stated)", "Potency": "inconclusive: 29.1 µM [cytotoxic, single point]"}
{"compound": "COC(=O)C1=C(c2ccc(F)cc2OCc2ccccc2)C[C@@H]2CC[C@H]1N2C(=O)NCc1ccc2[nH]ccc2c1", "Potency": "inconclusive: 25.9 µM [cytotoxic, single point]"}
{"compound": "Cc1ccccc1CN1Cc2cnnn2-c2ccccc2C1C#N", "note": "(configuration not stated)", "Potency": "inconclusive: 23.1 µM [cytotoxic, single point]"}
{"compound": "CC(=NCCC1=CCCCC1)c1c(O)n(C)c(=O)n(C)c1=O", "Potency": "inconclusive: 23.1 µM [cytotoxic, single point]"}
{"compound": "O=C1NC(=O)[C@]2(Cc3ccccc3N3CCN(c4ccccc4)CC32)C(=O)N1c1ccccc1", "note": "(some centres not stated)", "Potency": "inconclusive: 23.1 µM [cytotoxic, single point]"}
{"compound": "C=CCn1c(O)c(/C(C)=N/N2CCCCCC2)c(=O)[nH]c1=O", "Potency": "inactive"}
{"compound": "Cc1cc(C)n(CCOC(=O)C2C(C=C(Cl)Cl)C2(C)C)n1", "note": "(configuration not stated)", "Potency": "inconclusive: 10.3 µM [cytotoxic, partial curve, poor fit]"}
{"compound": "COC(=O)C1=C(c2ccc(F)cc2OCc2ccccc2)C[C@@H]2CC[C@H]1N2C(=O)N1CCC(O)(c2ccc(Cl)cc2)CC1", "Potency": "inconclusive: 16.4 µM [cytotoxic, single point]"}
{"compound": "COc1cc2nc(CN3CC=C(c4ccccc4)CC3)[nH]c(=O)c2cc1OC", "Potency": "active: 7.31 µM"}
{"compound": "Oc1c(Br)cc(Br)cc1CN1CCN(Cc2ccccc2)CC1", "Potency": "inconclusive: 29.1 µM [cytotoxic, single point]"}
{"compound": "CCOC(=O)[C@]12Cc3cc(OC)ccc3[C@H]1N(CC(=O)OC)C(=O)c1cc(OC)ccc12", "Potency": "active: 4.61 µM"}
{"compound": "COc1ccc(N=Cc2c(O)n(Cc3cccs3)c(=O)[nH]c2=O)cc1", "activity change, negative = cytotoxic": "inconclusive: 0.128%"}
{"compound": "CCOC(=O)[C@]12Cc3cc(OC)ccc3[C@H]1N(Cc1ccccc1)C(=O)c1cc(OC)ccc12", "Potency": "inconclusive: 18.4 µM [cytotoxic, single point]"}
{"compound": "COC(=O)C1=C(c2ccc(Cl)c(C(F)(F)F)c2)C[C@@H]2CC[C@H]1N2C(=O)N1CCC(C)CC1", "Potency": "inconclusive: 32.6 µM [cytotoxic, single point]"}
{"compound": "O=C(c1ccco1)N1Cc2ccccc2-n2nncc2C1", "Potency": "inconclusive: 29.1 µM [rising, partial curve, poor fit]"}
{"compound": "Cc1c(C=O)c2ccccc2n1Cc1ccccc1F", "Potency": "inconclusive: 18.4 µM [cytotoxic, single point]"}
